No constants are given. Whether binding was seen depends on the method and setting.
Target: Δ192AnxA11 (N-terminally truncated rat annexin A11) (rat) (UniProt Q5XI77)
Assay: SAXS; protein in solution, 20 mM Tris-HCl, 10 °C, dilution series 0.41–2.96 mg/mL; monomeric BSA as molecular weight standard; both purified

binding: no binding (tested: 0.41–1.18 mg/mL)
B1: Δ192AnxA11 (N-terminally truncated rat annexin A11) (domain or fragment, UniProt Q5XI77 193-503)
chain: TDASGFDPLRDAEVLRKAMKGFGTDEQAIIDCLGSRSNKQRQQILLSFKTAYGKDLIKDLKSELSGNFEKTILALMKTPVLFDVYEIKEAIKGAGTDEACLIEILASRSNEHIRELNRAYKTEFKKTLEEAIRSDTSGHFQRLLISLSQGNRDESTNVDMSLVQRDVQELYAAGENRLGTDESKFNAILCSRSRAHLVAVFNEYQRMTGRDIEKSICREMSGDLEQGMLAVVKCLKNTPAFFAERLNKAMRGAGTKDRTLIRIMVSRSELDLLDIRAEYKRMYGKSLYHDITGDTSGDYRKILLKICGGND

Source: publication PMC7226064
